Assay results from EP4647494 (dated 2024).

Assay: general procedure: Fmoc solid-phase peptide synthesis; Rink Amide-AM Resin; HCTU/NMM
Conditions: whole synthesis, analytical HPLC and LC/MS, scale 0.2 mmol

Question: Which “final HPLC purity” value does the source give for “PEPTIDE1{G.K.W.G.F.Y.T.K.V.F.R.L.K.K.W.I.K.K.V.I.C.T.F.G.C.[am]}$PEPTIDE1,PEPTIDE1,21:R3-25:R3$$$V2.0” here?
Answer: >95%

Some peptides are written in HELM: one residue between dots, names in brackets for other building blocks, links after the first $.
